{"source": "patent US20250195446A1", "about": "“ANTIBACTERIAL DRUG-ELUTING COMPOSITIONS AND METHODS” (THE REGENTS OF THE UNIVERSITY OF CALIFORNIA, priority 2022, published 2025)", "origin": "cited, not measured here", "note": "At least one structure is not confirmed: it was looked up by name or label, or the drawing left a doubt.", "data": [{"smiles": "COc1c(N2C[C@@H]3CCCN[C@@H]3C2)c(F)cc2c(=O)c(C(=O)O)cn(C3CC3)c12", "note": "[MXF, moxifloxacin]", "values": [{"measurement": "minimum inhibitory concentration (MIC)", "setting": "Pseudomonas aeruginosa", "result": "< 1", "unit": "µg/mL"}, {"measurement": "minimum inhibitory concentration (MIC)", "setting": "Staphylococcus aureus", "result": "less than 0.25 μg/mL"}]}]}
